{"source": "PubChem BioAssay AID1259425 (University of Nebraska Medical Center, 2018)", "aim": "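Compare each knockdown with KSR1 silencing using changes in marker transcripts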 (primary screen)", "system": "HCT116 human colon cancer cells", "reagents": "siRNA pool against human genes, 50 nM siRNA", "measured": "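mRNA of six signature genes measured together by branched-DNA assay after 50 nM siRNA pool, blank removed, divided by geometric mean of two housekeeping genes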", "reading the numbers": "BNIP3L mRNA: higher = more BNIP3L transcript after knockdown; NDRG1 mRNA: higher = more NDRG1 transcript after knockdown", "note": "The deposit covers about 14,000 reagents; below is a random part of them. Further read-outs or replicates are left out here. No sequences are given here. Not given: the time to read-out."}
{"Gene":"TMUB2","PubChem SID":"SID364004898","BNIP3L mRNA, set 1":0.263,"NDRG1 mRNA, set 1":0.431}
{"Gene":"L3MBTL2","PubChem SID":"SID364003666","BNIP3L mRNA, set 1":0.187,"NDRG1 mRNA, set 1":0.635}
{"Gene":"PAIP2","PubChem SID":"SID364000134","BNIP3L mRNA, set 1":0.28,"NDRG1 mRNA, set 1":0.162}
{"Gene":"XIAP","PubChem SID":"SID363992458","BNIP3L mRNA, set 1":0.0747,"NDRG1 mRNA, set 1":0.131}
{"Gene":"CUTA","PubChem SID":"SID363999723","BNIP3L mRNA, set 1":0.137,"NDRG1 mRNA, set 1":0.395}
{"Gene":"BRD7","PubChem SID":"SID363998387","BNIP3L mRNA, set 1":0.0929,"NDRG1 mRNA, set 1":0.245}
{"Gene":"SNX7","PubChem SID":"SID363999766","BNIP3L mRNA, set 1":0.057,"NDRG1 mRNA, set 1":0.16}
{"Gene":"FAM8A1","PubChem SID":"SID363999984","BNIP3L mRNA, set 1":0.0812,"NDRG1 mRNA, set 1":0.0942}
{"Gene":"NDUFA9","PubChem SID":"SID363995941","BNIP3L mRNA, set 1":0.0909,"NDRG1 mRNA, set 1":0.304}
{"Gene":"COPG2","PubChem SID":"SID363998079","BNIP3L mRNA, set 1":0.051,"NDRG1 mRNA, set 1":0.113}
{"Gene":"EMG1","PubChem SID":"SID363997151","BNIP3L mRNA, set 1":0.174,"NDRG1 mRNA, set 1":0.491}
{"Gene":"ZNF384","PubChem SID":"SID364004534","BNIP3L mRNA, set 1":0.0792,"NDRG1 mRNA, set 1":0.182}
{"Gene":"PALLD","PubChem SID":"SID363999854","BNIP3L mRNA, set 1":0.0842,"NDRG1 mRNA, set 1":0.149}
{"Gene":"ODAM","PubChem SID":"SID364000586","BNIP3L mRNA, set 1":0.108,"NDRG1 mRNA, set 1":0.321}
{"Gene":"ADSS1","PubChem SID":"SID364004713","BNIP3L mRNA, set 1":0.0566,"NDRG1 mRNA, set 1":0.129}
{"Gene":"RSRC2","PubChem SID":"SID364002618","BNIP3L mRNA, set 1":0.105,"NDRG1 mRNA, set 1":0.0777}
{"Gene":"FZD2","PubChem SID":"SID363992728","BNIP3L mRNA, set 1":0.132,"NDRG1 mRNA, set 1":0.227}
{"Gene":"MATN4","PubChem SID":"SID363994894","BNIP3L mRNA, set 1":0.234,"NDRG1 mRNA, set 1":0.0363}
{"Gene":"LSM7","PubChem SID":"SID363999942","BNIP3L mRNA, set 1":0.177,"NDRG1 mRNA, set 1":0.462}
{"Gene":"POU3F4","PubChem SID":"SID363991639","BNIP3L mRNA, set 1":0.13,"NDRG1 mRNA, set 1":0.073}
{"Gene":"MTG2","PubChem SID":"SID363999634","BNIP3L mRNA, set 1":0.0972,"NDRG1 mRNA, set 1":0.158}
{"Gene":"DTL","PubChem SID":"SID364000113","BNIP3L mRNA, set 1":0.0718,"NDRG1 mRNA, set 1":0.135}
{"Gene":"EPB41L1","PubChem SID":"SID363998100","BNIP3L mRNA, set 1":0.104,"NDRG1 mRNA, set 1":0.217}
{"Gene":"TIAL1","PubChem SID":"SID363994373","BNIP3L mRNA, set 1":0.124,"NDRG1 mRNA, set 1":0.0995}
{"Gene":"DRP2","PubChem SID":"SID363993152","BNIP3L mRNA, set 1":0.198,"NDRG1 mRNA, set 1":0.132}
{"Gene":"PRR5L","PubChem SID":"SID364003105","BNIP3L mRNA, set 1":0.174,"NDRG1 mRNA, set 1":0.221}
{"Gene":"USP7","PubChem SID":"SID363994569","BNIP3L mRNA, set 1":0.0711,"NDRG1 mRNA, set 1":0.547}
{"Gene":"ANK1","PubChem SID":"SID363991376","BNIP3L mRNA, set 1":0.0814,"NDRG1 mRNA, set 1":0.208}
{"Gene":"BHLHE40","PubChem SID":"SID363994745","BNIP3L mRNA, set 1":0.18,"NDRG1 mRNA, set 1":0.293}
{"Gene":"MAGEH1","PubChem SID":"SID363998585","BNIP3L mRNA, set 1":0.163,"NDRG1 mRNA, set 1":0.222}
{"Gene":"DLX6","PubChem SID":"SID364005580","BNIP3L mRNA, set 1":0.126,"NDRG1 mRNA, set 1":0.0718}
{"Gene":"BTD","PubChem SID":"SID363991397","BNIP3L mRNA, set 1":0.137,"NDRG1 mRNA, set 1":0.195}
{"Gene":"GJB5","PubChem SID":"SID363996188","BNIP3L mRNA, set 1":0.123,"NDRG1 mRNA, set 1":0.216}
{"Gene":"SVEP1","PubChem SID":"SID363991339","BNIP3L mRNA, set 1":0.268,"NDRG1 mRNA, set 1":0.108}
{"Gene":"AASDHPPT","PubChem SID":"SID363999483","BNIP3L mRNA, set 1":0.0973,"NDRG1 mRNA, set 1":0.308}
{"Gene":"PDP1","PubChem SID":"SID364001077","BNIP3L mRNA, set 1":0.101,"NDRG1 mRNA, set 1":0.215}

An excerpt from the list above, for reference:
{"Gene":"DRP2","PubChem SID":"SID363993152","BNIP3L mRNA, set 1":0.198,"NDRG1 mRNA, set 1":0.132}
{"Gene":"PRR5L","PubChem SID":"SID364003105","BNIP3L mRNA, set 1":0.174,"NDRG1 mRNA, set 1":0.221}
{"Gene":"USP7","PubChem SID":"SID363994569","BNIP3L mRNA, set 1":0.0711,"NDRG1 mRNA, set 1":0.547}
{"Gene":"ANK1","PubChem SID":"SID363991376","BNIP3L mRNA, set 1":0.0814,"NDRG1 mRNA, set 1":0.208}
{"Gene":"BHLHE40","PubChem SID":"SID363994745","BNIP3L mRNA, set 1":0.18,"NDRG1 mRNA, set 1":0.293}
{"Gene":"MAGEH1","PubChem SID":"SID363998585","BNIP3L mRNA, set 1":0.163,"NDRG1 mRNA, set 1":0.222}
